This is one part of the list.
molecular target: OsWRKY34 (Oryza sativa, UniProt Q0JBA9 1-250); assay: protein-binding microarray (RPBM); PBS, 2% BSA, 51.3 ng/ul salmon testes DNA, 50 uM zinc acetate, 200 nM TF, 25 C, 1 h; high values mean tight binding; conditions: protein: recombinant; tags: N-terminal polyhistidine and DsRed monomer fusion (pET32a); label: CyDye5-dUTP incorporated in the synthesized complementary strand; 3' TTTTT single-stranded linker to array surface; dsDNA, one strand shown
Outline: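 The binding signal is fluorescence intensity per array feature (arbitrary units). Readings came from an Axon 4000B scanner after a washed, 2% BSA-blocked, double-stranded custom Agilent array had been incubated for 1 h at 25 °C with 200 nM protein and 50 µM zinc acetate. The protein was a Ni–NTA-purified transcription factor fused N-terminally to polyhistidine and DsRed, expressed in E. coli BL21-CodonPlus.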

Chains of the proteins cited; added tags and fusions are not shown.
UniProt Q0JBA9, entry or part of it: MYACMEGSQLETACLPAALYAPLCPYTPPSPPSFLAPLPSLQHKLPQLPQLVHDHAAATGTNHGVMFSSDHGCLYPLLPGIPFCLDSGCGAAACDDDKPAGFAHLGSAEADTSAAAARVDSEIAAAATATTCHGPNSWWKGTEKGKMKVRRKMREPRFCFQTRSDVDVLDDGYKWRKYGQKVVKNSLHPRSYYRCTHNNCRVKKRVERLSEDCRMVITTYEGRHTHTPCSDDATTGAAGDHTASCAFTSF

Row | Sequence | binding signal
1 | GTTGTTTCACCTGATCAGCTAGGTACAATTGTCTTTCTTCCGGAGTCACCTAGTGCAG | 8800 fluorescence intensity (a.u.)
2 | CGTTCGCGTTTCGGTTTGACCGCGCGTCTCGCCTAGATTTCGGAGTCACCTAGTGCAG | 8650 fluorescence intensity (a.u.)
3 | TTTCTGGGATATTCCATCTCATTACAGCACTCATTCTTTACGGAGTCACCTAGTGCAG | 9350 fluorescence intensity (a.u.)
4 | GTGGCCGTGGTAGGGAGAGGTGGTGGTGCGCGCGCGGTAACGGAGTCACCTAGTGCAG | 8150 fluorescence intensity (a.u.)
5 | TTTTTTCTGTTTTTTTCTTTCCGTATCTTTTTCAGTTTTTCGGAGTCACCTAGTGCAG | 14200 fluorescence intensity (a.u.)
6 | TCCCATGTCACCGGCACGTACCTTTTCCTTTCCGAAATAACGGAGTCACCTAGTGCAG | 8740 fluorescence intensity (a.u.)
7 | GCAGTTGTCAGTGTTGGTGGCATCAAAACCCTAGTTCATCCGGAGTCACCTAGTGCAG | 13100 fluorescence intensity (a.u.)
8 | AAAACTACACTGTACTTTTTTTTTCTTTTTCTTTTTTCTGCGGAGTCACCTAGTGCAG | 10100 fluorescence intensity (a.u.)
9 | GATCTCATCCGTACAAACACACAAGAATGGCTATGATTTCCGGAGTCACCTAGTGCAG | 8570 fluorescence intensity (a.u.)
10 | TTCGTATCTAACGTTTGACTGCCCGTCTTATAATAATTTTCGGAGTCACCTAGTGCAG | 10400 fluorescence intensity (a.u.)
11 | GGTGGCGGTGGCTGCTAGGGTTTTTTTTTTAGGAGGGGAACGGAGTCACCTAGTGCAG | 12600 fluorescence intensity (a.u.)
12 | ATATTGTAGTAATATATTTTTAAGCTTTTTAGCTAATATTCGGAGTCACCTAGTGCAG | 8090 fluorescence intensity (a.u.)
13 | ACTTATTCCATTCAATTTCAGGTTATTTGGATGGGCTTTCCGGAGTCACCTAGTGCAG | 9720 fluorescence intensity (a.u.)
14 | ATTCTTCTCAGAGTGTGGGTGTTTCTCGAGCTATGCATCTCGGAGTCACCTAGTGCAG | 8250 fluorescence intensity (a.u.)
15 | GAGTAAAAGTTTGACATGTTTCCATTTTTATCACACGTTTCGGAGTCACCTAGTGCAG | 9040 fluorescence intensity (a.u.)
16 | AAATCTTTCTCAACTCTTTCTTAAATCTCTTGTTTTCCTTCGGAGTCACCTAGTGCAG | 10300 fluorescence intensity (a.u.)
17 | GTTCATTTTATAGTCTAGCAAAATTTCCTCTCTTTTTTTTCGGAGTCACCTAGTGCAG | 10700 fluorescence intensity (a.u.)
18 | ATTTCCTATTCAACGGTTGCATGTTTTTTTCTTCAATTTACGGAGTCACCTAGTGCAG | 13900 fluorescence intensity (a.u.)
19 | TTTACCCCTACCCCACATGTCAGTGACAGAGTCTGCGGGGCGGAGTCACCTAGTGCAG | 8570 fluorescence intensity (a.u.)
20 | GCGACACGACGTCATTTTCTCCCCTGCACCGGATAAACAACGGAGTCACCTAGTGCAG | 8710 fluorescence intensity (a.u.)
21 | CACACCGCTCCACTCCGCCGCTGCCCTGCTCCACTCCGTCCGGAGTCACCTAGTGCAG | 8580 fluorescence intensity (a.u.)
22 | GCGCATTCCTATTAAGAGGTTTTTTACTGTCCTTCAGGTTCGGAGTCACCTAGTGCAG | 8450 fluorescence intensity (a.u.)
23 | CTCAAACCGCGTCGCCATCATTTTCGATTATAATATTTCTCGGAGTCACCTAGTGCAG | 11600 fluorescence intensity (a.u.)
24 | TTGCTGTTACTCTTTTTCACTTTCGTCATGTCTTCATCTTCGGAGTCACCTAGTGCAG | 9950 fluorescence intensity (a.u.)
25 | CTTCGCCTTCGCCTCGCCGCGCCGCCGCCGTCTAGCCCTTCGGAGTCACCTAGTGCAG | 9790 fluorescence intensity (a.u.)
26 | ACCAAACAAGCTTCTGCTTCGTCTGCAGCCACCTGACATCCGGAGTCACCTAGTGCAG | 8940 fluorescence intensity (a.u.)
27 | TACAGCGTTGGCCACGAGAGAGTTCAGTTGCTTTGTTTTTCGGAGTCACCTAGTGCAG | 8120 fluorescence intensity (a.u.)

Row | Sequence | binding signal
28 | TTAATTTCACGGTTTCATCTCGACATCTCATCATCTGTTTCGGAGTCACCTAGTGCAG | 12100 fluorescence intensity (a.u.)
29 | AGGTTTACTCACAGAAAGCGTCGGGGCGGGTCTGGGAGGGCGGAGTCACCTAGTGCAG | 11800 fluorescence intensity (a.u.)
30 | AAATTTCCCAAAACGCGGGTGCGGTCACTATTAAATCACCCGGAGTCACCTAGTGCAG | 8180 fluorescence intensity (a.u.)
31 | CCATTTATTTTATTCAAACAATTTACGTAAATTATATTATCGGAGTCACCTAGTGCAG | 8070 fluorescence intensity (a.u.)
32 | GTTCGACTTTATACTTCGGGTTTTTTTTTTTTTTAGAGTTCGGAGTCACCTAGTGCAG | 10200 fluorescence intensity (a.u.)
33 | ATCTTCGGTGTACTATTGGGTCATGATTTGACCCATCTAACGGAGTCACCTAGTGCAG | 24900 fluorescence intensity (a.u.)
34 | CACCTGTCTGTCTCACATATTTTCTTGGTTCCTGTGTCTACGGAGTCACCTAGTGCAG | 8330 fluorescence intensity (a.u.)
35 | CTTTAGTCTTCTGTCCTCTTTTAACTCCATATACGTAGGACGGAGTCACCTAGTGCAG | 8390 fluorescence intensity (a.u.)
36 | TTGTACATTTTTTCTCTTGATGTATCTCTTTTAATACTTTCGGAGTCACCTAGTGCAG | 9980 fluorescence intensity (a.u.)
37 | TATATATATATATATATATATATAAATAAATCCTTCTACACGGAGTCACCTAGTGCAG | 12100 fluorescence intensity (a.u.)
38 | TTGACCCAAGAACGGAGGAGGGATAGGGCGGGCGGCGATGCGGAGTCACCTAGTGCAG | 8080 fluorescence intensity (a.u.)
39 | AGCTGCTAGTAAAAACCGGGGAGTTGGTGTGGGTGGGATTCGGAGTCACCTAGTGCAG | 11200 fluorescence intensity (a.u.)
40 | CCTTCATATTCGGCCAATGCCTTCTATATATGTTCTAGCTCGGAGTCACCTAGTGCAG | 9760 fluorescence intensity (a.u.)
41 | TAAATTGAGGGATGACATATATCTTGTTTTACGGTTGGGGCGGAGTCACCTAGTGCAG | 8290 fluorescence intensity (a.u.)
42 | AGCCTCAGATCGCTTGCCAGCCATCTATCCCATTCACTGGCGGAGTCACCTAGTGCAG | 8130 fluorescence intensity (a.u.)
43 | GATCAATATGTAACATATCACTCCGCAAACATGTAAGTTCCGGAGTCACCTAGTGCAG | 8030 fluorescence intensity (a.u.)
44 | ATGTAGGGGTTCCTGCTGCTGCTGTTCTGCCCATTCAACACGGAGTCACCTAGTGCAG | 8880 fluorescence intensity (a.u.)
45 | CAGCATTTGTGATTGGGTAGTATGGGTTGCTCGATCTTTCCGGAGTCACCTAGTGCAG | 12300 fluorescence intensity (a.u.)
46 | CAACTCCCTGCCTCGCTGCTGCCTCGCACAGTCGCGTTCCCGGAGTCACCTAGTGCAG | 8870 fluorescence intensity (a.u.)
47 | GCACCAACCGCGCCATGTGCGGGGCGGGGCGGCCGTGCTTCGGAGTCACCTAGTGCAG | 10500 fluorescence intensity (a.u.)
48 | GTCAAACTTTGTATACGGATTCTCACGACTGTACTTATTTCGGAGTCACCTAGTGCAG | 8380 fluorescence intensity (a.u.)
49 | GTGGGTATATTTGGTTGATCACATCTGCAGCCATCAAAGACGGAGTCACCTAGTGCAG | 9400 fluorescence intensity (a.u.)
50 | AACTCTATTTCTCCTCTATCTCTATCTATCTATCTATCTACGGAGTCACCTAGTGCAG | 12200 fluorescence intensity (a.u.)
51 | TGCACAGGTCAGTAACTTAATTCGTTTTTATTTTTTTATACGGAGTCACCTAGTGCAG | 8870 fluorescence intensity (a.u.)
52 | ATAATGAAATTTCATAGGGGAGGGGCTGGGCTTTATAGGGCGGAGTCACCTAGTGCAG | 13500 fluorescence intensity (a.u.)
53 | CTGTGATCCAAATAAACCTTAAATGTTATACTACTTCTGTCGGAGTCACCTAGTGCAG | 8320 fluorescence intensity (a.u.)
54 | GGAGGGGACGACGATGGTGGGGTGGGTGGTGTCCGGGGTGCGGAGTCACCTAGTGCAG | 19100 fluorescence intensity (a.u.)

Laid out differently: results already given.
CTGTGATCCAAATAAACCTTAAATGTTATACTACTTCTGTCGGAGTCACCTAGTGCAG
  binding signal: 8320 fluorescence intensity (a.u.)
GGAGGGGACGACGATGGTGGGGTGGGTGGTGTCCGGGGTGCGGAGTCACCTAGTGCAG
  binding signal: 19100 fluorescence intensity (a.u.)
